These are yes or no findings as the source states them, for the method shown. For some assays here: Binding seen in cells or lysates may run through a third protein. Some entries that bind do so weakly or less than the wild type.
Legend:
[1] = target: GST-STAT3 fusion protein (UniProt P40763); assay: pull-down; 20 μg GST-STAT3 or GST held on Glutathione Magnetic Beads in PBS (2 h, 4 °C); 20 μg His-tagged PKR added, overnight at 4 °C; washed with PBS; blot with anti-PKR and Coomassie stain; both purified
[2] = target: signal transducer and activator of transcription 3 (STAT3), endogenous in HCC cells (human (endogenous in Huh7 and HepG2.2.15)) (UniProt P40763); assay: co-IP; Huh7 and HepG2.2.15 cell lysates in RIPA buffer, with or without STAT3-shRNA knock-down, incubated with anti-STAT3 antibody or IgG and Protein A/G Magnetic Beads at 4 °C overnight; washed with PBS; blot with anti-STAT3 and anti-PKR

By UniProt entry, the sequences of proteins in these tests, tags left out. Where a name states a change or a piece, a line headed by the entry shows the natural chain unless it says otherwise.
UniProt P40763: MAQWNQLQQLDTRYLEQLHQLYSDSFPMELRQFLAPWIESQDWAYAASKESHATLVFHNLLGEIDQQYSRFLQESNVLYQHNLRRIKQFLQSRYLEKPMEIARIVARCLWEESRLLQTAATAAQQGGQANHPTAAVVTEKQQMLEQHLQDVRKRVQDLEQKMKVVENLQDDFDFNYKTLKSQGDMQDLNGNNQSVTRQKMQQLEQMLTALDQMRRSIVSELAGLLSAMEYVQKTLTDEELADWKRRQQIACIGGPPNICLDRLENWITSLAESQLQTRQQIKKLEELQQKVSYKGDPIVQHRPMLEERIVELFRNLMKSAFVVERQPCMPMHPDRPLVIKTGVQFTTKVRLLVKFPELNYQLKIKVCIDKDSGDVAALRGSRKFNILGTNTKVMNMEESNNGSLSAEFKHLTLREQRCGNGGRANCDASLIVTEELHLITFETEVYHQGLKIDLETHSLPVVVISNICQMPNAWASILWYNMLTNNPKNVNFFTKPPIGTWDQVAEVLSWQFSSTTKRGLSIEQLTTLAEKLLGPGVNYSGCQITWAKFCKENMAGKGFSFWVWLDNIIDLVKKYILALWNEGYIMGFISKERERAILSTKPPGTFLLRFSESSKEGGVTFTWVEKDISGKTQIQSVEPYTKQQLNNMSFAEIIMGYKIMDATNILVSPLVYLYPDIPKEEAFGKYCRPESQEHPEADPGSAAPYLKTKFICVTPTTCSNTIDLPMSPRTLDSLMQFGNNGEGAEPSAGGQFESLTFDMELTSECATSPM
UniProt P19525: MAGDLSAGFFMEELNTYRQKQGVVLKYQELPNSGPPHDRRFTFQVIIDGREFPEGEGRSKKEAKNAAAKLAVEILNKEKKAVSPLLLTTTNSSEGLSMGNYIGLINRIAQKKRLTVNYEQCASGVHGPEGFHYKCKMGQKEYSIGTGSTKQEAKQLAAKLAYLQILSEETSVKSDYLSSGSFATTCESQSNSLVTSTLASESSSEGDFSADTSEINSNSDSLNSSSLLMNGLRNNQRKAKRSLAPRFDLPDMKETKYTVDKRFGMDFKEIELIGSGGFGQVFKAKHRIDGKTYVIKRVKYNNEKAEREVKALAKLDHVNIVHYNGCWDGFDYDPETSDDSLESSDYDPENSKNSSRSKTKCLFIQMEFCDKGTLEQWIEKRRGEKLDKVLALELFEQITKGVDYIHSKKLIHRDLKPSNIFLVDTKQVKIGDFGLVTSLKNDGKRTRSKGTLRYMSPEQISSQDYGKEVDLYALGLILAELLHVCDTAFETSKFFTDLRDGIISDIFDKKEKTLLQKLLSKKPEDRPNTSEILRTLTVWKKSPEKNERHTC

| Substance | binding [1] | binding [2] |
| --- | --- | --- |
| His-tagged PKR (from UniProt P19525 1-551) | binds |  |
| eIF2α kinase PKR, endogenous in HCC cells (from UniProt P19525 1-551) |  | binds |

Source: paper PMC9348600
